Earlier results as cited in patent publication US12582654B2, “Cyano-substituted pyridine and cyano-substituted pyrimidine compound and preparation method therefor and application thereof” (BEIJING SCITECH-MQ PHARMACEUTICALS LIMITED, priority 2019, dated 2026).

Test system: each subtype of FGFR
Conditions: cited from earlier work

C=CC(=O)N1CC[C@H](n2nc(C#Cc3cc(OC)cc(OC)c3)c3c(N)ncnc32)C1 [TAS-120]
enzymatic inhibitory activity against each subtype of FGFR: nanomolar levels
